# Primary screen of a compound library

Source: ChEMBL document CHEMBL3988442, “University of Dundee, Small-Polar-MMV Screening Library” (2021).

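Whole-cell growth test on Mycobacterium tuberculosis, read after 4 days in a medium based on cholesterol and the lipid DPPC; the read-out is not stated. Compounds at 50 µM. Direction is inferred from retests: higher values go with more growth inhibition. Of about 69,000 compounds tested this way, about 370 (0.54%) reached 50% or more in at least one test.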

Each number is a percent effect as filed.
The record does not define 0% and 100%; most values in the screen are far below 50% and negative numbers occur (in some assays of this library far below -100).
The compounds are a random part of those screened.
Two or more numbers in one place are separate tests of the same structure; such repeats can differ widely.

structure | effect
Cc1ccc(C)c(NC(=O)Cc2c(C)nc3c(c2C)c(=O)[nH]n3C)c1 | -18.18
CC(C)n1ccnc1CN1CCCN(C(=O)c2nccnc2N)CC1 | -9.27
CCS(=O)(=O)N(C)C1CCN(C(=O)c2ccc(C)c(C)c2)CC1 | 8.856
CC(C)(C)n1ccc(C(=O)N2CCCC(c3ncc[nH]3)C2)c1 (configuration not stated) | -21.78
CCCS(=O)(=O)c1ncc(CN2CCC(C)CC2)n1CC1CCCO1 (configuration not stated) | -14.22
Cc1cc(C(=O)N(C)Cc2cccs2)nc(N2CCOCC2)n1 | 0.6649
Cc1nc(CN2CCCn3c(nc(Cn4cncn4)cc3=O)C2)cs1.O=C(O)C(F)(F)F | -22.06
CN1CCN(C(=O)c2ccnc(N3CCOC(C(F)(F)F)C3)c2)CC1 (configuration not stated) | -21.73
Cc1nn(C)c(N(C)C)c1CNCc1ccc(Cn2cccn2)cc1 | -6.344
Cc1cc(C)nc(NC2CC(=O)N(C(C)(C)C)C2)n1 (configuration not stated) | 25.84
CC(C(=O)NC1CC1)S(=O)(=O)Cc1noc(C(C)(C)C)n1 (configuration not stated) | -11.78
COc1ccnc(N2CCN(CC(O)CN3CCOCC3)CC2)n1 (configuration not stated) | -9.204
Nc1nnc(CCCn2nnc(-c3ccccc3F)n2)s1 | 11.94
C[C@@H]1CN(C(=O)C2CCS(=O)(=O)CC2)CC[C@@]1(O)C1CCOCC1 | 7.191
CN1CC2(CCN(CCOCCO)CC2)CC(c2ccccc2)C1=O (configuration not stated) | -3.882
O=C(c1cc(-n2cnnn2)ccc1Cl)N1CCCCCC1 | -8.39
O=C(Cn1cc(C2CC2)nn1)NC(c1ccc(Cl)cc1)C1CC1 (configuration not stated) | 1.197 and 2.484
[H][C@]12CC[C@@]3(N=C(c4ccccc4)NC3=O)[C@@]1([H])CN(Cc1ccco1)C2 | 9.034
O=C(CCn1cc(Cl)cn1)N1CCN(CCOc2ccccc2)CC1 | 16.15
Cc1ccc(CN2Cc3ccnn3CC(C(=O)NCC3CC3)C2)o1.O=C(O)C(F)(F)F.O=C(O)C(F)(F)F (configuration not stated) | -24.84
O=C(O)CC(O)(CC(=O)O)C(=O)O.[H][C@@]12CCCN1C[C@H](CCSC)N(Cc1cnn(CC)c1)C2 | -7.39
Cc1cnc(C)c(N2CCN(Cc3ccc(-c4cc[nH]n4)o3)CC2)n1 | 24.48
CCc1nc(CN(Cc2cccs2)CC2CCCO2)no1 (configuration not stated) | -3.664
Cc1cc(C)c(CNC(=O)NCC2CCCOC2)c(=O)[nH]1 (configuration not stated) | 9.649
CC(=O)N1N=C(Cc2ccccc2)OC1C(=O)NCC(C)C (configuration not stated) | -6.707
CCCN(CCC)c1nc(N)nc(-c2cc(Cl)ccc2OC)n1 | 16.48
Cn1ncc2c1CN(Cc1ccccc1F)CC2COCC1CC1.O=C(O)C(F)(F)F.O=C(O)C(F)(F)F (configuration not stated) | -26.58
O=C(NCC1CC1)C1CN(c2ncccn2)Cc2ccnn2C1.O=C(O)C(F)(F)F.O=C(O)C(F)(F)F (configuration not stated) | -3.918
O=C1CSC(c2cccnc2)c2c(n(C3CCOCC3)[nH]c2=O)N1 (configuration not stated) | -10.82
Cc1ccc(NS(=O)(=O)c2cnn(Cc3ccccc3)c2)c(C(=O)O)c1 | 15.72
O=C(O)C(F)(F)F.[H][C@@]12CN(CC(C)C)C[C@]1([H])C(=O)N(CC)C21CCN(C(=O)NC(C)C)CC1 | 10.72 and -2.25
Cc1cc(C(=O)Nc2ccc(-c3nnc(N(C)C)o3)cc2)oc1C | -13.73
CCCN(CC)C(=O)c1cc(Cn2c(C)nc3ccccc32)[nH]n1 | 2.511
O=C(c1ccc2[nH]nnc2c1)N1CC[C@H](O)[C@]2(CCCO2)C1 | -12.95
[H][C@@]12CCN(c3cc(Sc4cccs4)nc(N)n3)C[C@@]([H])(CC1)N2C | -6.118
[H][C@@]12C[C@@H](OCc3ccccc3)C[C@]1([H])CN(Cc1cccnc1)C2 | 2.133
Cc1nnc2n1CCN(Cc1csc(Cc3ccccc3)n1)C2 | -12.85
CS(=O)(=O)c1nnc(NC(=O)CCc2cc(F)ccc2F)[nH]1 | -10.65
CCOCc1ncn2c1CN(C(=O)Nc1ccccc1CC)CC2 | -20.71
COc1ccccc1-c1csc(NC(=O)N2CCN(C)CC2C)n1 (configuration not stated) | 15.03
COCCN(Cc1ccoc1)C(=O)c1c(F)cccc1Cl | 6.301
Cc1cncc(C(=O)N2CCc3ncc(Cn4cccn4)n3CC2)c1 | -5.639
COc1ccc(CN2CCN(CCn3ccnc3)CC2)cc1F | 14.35
CC(C)c1nn(C)c(Cl)c1CNCC(=O)N1CCN(C)CC1.Cl | -10.65
Cl.O=C(C1CCCCC1)N1CC2(CCNCC2)C1 | -0.5022
Cc1ccc(C(=O)CC(SC2CCCCC2)C(=O)O)cc1 (configuration not stated) | 2.097
Cc1cnn(CCNCC(=O)NCCOc2ccccc2)c1 | -43.71
c1cc(-c2c[nH]nc2C2CCCCC2)nc(N2CCCCCC2)n1 | -0.5623
CCCn1nccc1C(=O)Nc1nc(C)c(C)s1 | 10.72
CCSc1cc(C(=O)NC2CCN(C(=O)c3ccncc3)CC2)ccn1 | 4.955
CN(C)C(=O)N1CCN(C(=O)C(c2ccccc2F)N(C)C)CC1 (configuration not stated) | -17.01
O=C(NCCCNC(=O)C1CCC1)NCCn1cccc1 | -11.2
Cc1nc(CN2CCCC3(CCN(c4cccnc4)C3=O)C2)cs1.O=C(O)C(F)(F)F.O=C(O)C(F)(F)F (configuration not stated) | -18.33
Cc1nn(C)cc1CNC(=O)c1cn(CCC2CCCCN2)nn1 (configuration not stated) | -4.842
CC(C(=O)O)N1CC2(CCC1=O)CCN(CCSc1ccccc1)CC2 (configuration not stated) | -20.3
N#CC1(NC(=O)c2cc(Cl)c3c(c2)OCCCO3)CCC1 | -4.603 and 6.145
CCc1ncnc2c1CCN(S(=O)(=O)CC)CC2 | -24.66
Cn1ncc2c(N3CC(N4CCCCC4)C3)nc(C3CCCC3)nc21 | -27.1
COc1cc(C)nc(N2CCN(C(=O)COC3CCCC3)CC2)n1 | 20.27
OC1CCCN(Cc2cn(CC3CCN(C4CCSCC4)CC3)nn2)C1 (configuration not stated) | -12.46
Cn1cccc1C(=O)N1CCc2ccc(=O)n(C)c2CC1 | 14.87
Cc1ccc(-c2cc(C(=O)O)sn2)cc1 | -22.47
COCCN1Cc2ccccc2C2(CCN(S(C)(=O)=O)CC2)C1 | -5.297
CC(=O)Nc1nc(C(=O)N2CCCC2c2noc(C)n2)cs1 (configuration not stated) | -1.694
CCCn1ccnc1-c1cccc(NC(=O)[C@H]2CCC(=O)N2)c1 | 1.21
Cc1ccc(CN2CCc3onc(C(=O)NCCN(C)C)c3C2)o1.O=C(O)C(F)(F)F.O=C(O)C(F)(F)F | 0.5686
CCCc1n[nH]c(C2CN(C(=O)c3cccc4[nH]ncc34)CCO2)n1 (configuration not stated) | 5.797
COc1ccccc1C1SCC(=O)Nc2c1c(=O)[nH]n2C1CCOCC1 (configuration not stated) | -20.4
O=C(O)C(F)(F)F.O=S(=O)(C1CC1)N1CCC2(CC1)CC(Oc1cccnc1)CO2 (configuration not stated) | -5.143
CCOc1ccc(C(F)(F)F)cc1NC(=O)NCc1noc(C)n1 | 5.18
[H][C@]12CCN(C(=O)NC3CCCC3)CC[C@@]1([H])S(=O)(=O)N(CC)C2 | -11.97
N#CCSCCCN1CCN(C(=O)C2CCCC2)CC1 | -8.527 and -3.416
O=c1[nH]c(=O)n(CC(O)c2ccccc2Cl)cc1Cl (configuration not stated) | -10.26
CC(=O)NC(Cc1c[nH]c2cc(F)ccc12)C(=O)Nc1nncs1 (configuration not stated) | 9.352
Cc1cc(CN2CCC(C3CCN(Cc4cccnc4)CC3)C2)[nH]n1 (configuration not stated) | 24.78
COc1ccccc1CN1C[C@@H](F)[C@@H](OCc2nc3ccccc3[nH]2)C1 | -6.622
CC(C)=CCN1CCC(c2nnc(CN3CCN(C)CC3)n2C)CC1 | -5.336
CN(C)c1nc2c(c(N3CCC(O)CC3)n1)CN(CC1CCNC1)CC2 (configuration not stated) | 9.328
CC1CCc2nn(CCNC(=O)C3CCCC3)c(=O)cc2C1 (configuration not stated) | -10.46

The first 5 entries again:

With Cc1ccc(C)c(NC(=O)Cc2c(C)nc3c(c2C)c(=O)[nH]n3C)c1 the screen gave -18.18%.
With CC(C)n1ccnc1CN1CCCN(C(=O)c2nccnc2N)CC1 the screen gave -9.27%.
With CCS(=O)(=O)N(C)C1CCN(C(=O)c2ccc(C)c(C)c2)CC1 the screen gave 8.856%.
With CC(C)(C)n1ccc(C(=O)N2CCCC(c3ncc[nH]3)C2)c1 (configuration not stated) the screen gave -21.78%.
With CCCS(=O)(=O)c1ncc(CN2CCC(C)CC2)n1CC1CCCO1 (configuration not stated) the screen gave -14.22%.